Structures can show the parent of a compound that is named as a salt. Marks after values point to notes of the source that are not given here.
Assay: μCT analysis of OVX and Sham animals
Type: in vivo, mice
Conditions: Table 6; for Total area: ulnar midshaft - cortical, non-loaded, 20 mg/kg fenoldopam, mean±SEM

With Oc1ccc(C2CNCCc3c2cc(O)c(O)c3Cl)cc1 (stereo not drawn) [fenoldopam, Fenoldopam mesylate] the “Bone Mineral Density” value (cortical, OVX) was 1079.5 ± 3.9 mg/mm^3, the “Bone vol./Total vol.” value (cortical, OVX) was 0.849 ± 0.003 and the Cortical area (cortical, OVX) was 0.261 ± 0.005 mm^2. For the same compound, the Cortical thickness (cortical, OVX) was 0.151 ± 0.003 mm, the Imax (cortical, OVX) was 0.018 ± 0.001 mm^4 and the Imin (cortical, OVX) was 0.004 ± 0.001 mm^4. The Marrow area (cortical, OVX) was 0.046 ± 0.001 mm^2, the “Bone Mineral Density” value (cortical, Sham) was 1089.5 ± 5.7 mg/mm^3 and the “Bone vol./Total vol.” value (cortical, Sham) was 0.859 ± 0.002. It also gave a Cortical area (cortical, Sham) of 0.276 ± 0.008 mm^2, a Cortical thickness (cortical, Sham) of 0.162 ± 0.001 mm and an Imax (cortical, Sham) of 0.019 ± 0.002 mm^4. For the same compound, the Imin (cortical, Sham) was 0.005 ± 0.001 mm^4, the Marrow area (cortical, Sham) was 0.046 ± 0.001 mm^2 and the “Bone Mineral Density” value (trabecular, OVX) was 201.9 ± 10.2 mg/mm^3. The “Conn. Dens” value (trabecular, OVX) was 187.6 ± 20.0 mm^−3, the SMI (trabecular, OVX) was 1.807 ± 0.067+ and the “Tb. Number” value (trabecular, OVX) was 4.853 ± 0.139* mm^−1. For the same compound, the “Tb. Spacing” value (trabecular, OVX) was 0.208 ± 0.006+ mm, the “Tb. Thickness” value (trabecular, OVX) was 0.0395 ± 0.0010 mm and the “Bone Mineral Density” value (trabecular, Sham) was 268.8 ± 10.3 mg/mm^3. For the same compound, the “Conn. Dens” value (trabecular, Sham) was 232.8 ± 22.6 mm^−3, the SMI (trabecular, Sham) was 1.362 ± 0.083+ and the “Tb. Number” value (trabecular, Sham) was 5.384 ± 0.159* mm^−1. The “Tb. Spacing” value (trabecular, Sham) was 0.182 ± 0.005+ mm, the “Tb. Thickness” value (trabecular, Sham) was 0.0445 ± 0.0015 mm and the Total area (OVX) was 0.307 ± 0.005 mm^2. The Total area (Sham) was 0.322 ± 0.009 mm^2, the “Bone vol./Total vol.” value (ulnar proximal epiphysis - trabecular, OVX) was 0.130 ± 0.008 and the “Bone vol./Total vol.” value (ulnar proximal epiphysis - trabecular, Sham) was 0.183 ± 0.008.
